{"source": "PubChem BioAssay AID602196 (INSERM, 2012)", "screen": "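Genes whose knock-down alters cisplatin killing of lung cancer cells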", "system": "human A549 lung cancer cells", "reagents": "siRNA pair against human genes", "time to read-out": "48 h transfection before cisplatin; time from cisplatin to read-out not stated", "challenge": "cisplatin at a dose killing half of control-siRNA cells; exact dose and duration not given", "measured": "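Cisplatin cell death as a shift from the 50% death seen with control siRNA; siRNAs toxic or growth-blocking alone scored 0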", "direction": "two-siRNA summed score (-2 to +2): higher = both siRNAs protect from cisplatin killing; -2 means both sensitise", "hit rule": "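siRNAs harmful alone (LDH or WST-1) get 0; others get +1 for less and -1 for more cisplatin killing; genes are active when the two siRNAs give the same sign, summing to ±2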", "meaning of the calls": "active = both siRNAs shift cisplatin killing the same way; inactive = no consistent shift, or siRNA harmful alone", "note": "In all, the deposit lists about 23,000 reagents; shown is a random part of them. 455 of them (2%) count as active. 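Active includes both protection and sensitisation; some change values fall well beyond the stated -50 to +50 range.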 A number with no mark means an inactive call. Not all columns of the deposit are shown. The record does not give: the amount of reagent."}
{"target": "ELL2 (elongation factor for RNA polymerase II 2)", "two-siRNA summed score (-2 to +2)": 1}
{"target": "SPI1 (Spi-1 proto-oncogene)", "two-siRNA summed score (-2 to +2)": "-2 (active)"}
{"target": "LOC402377", "two-siRNA summed score (-2 to +2)": 0}
{"target": "KIAA1920", "two-siRNA summed score (-2 to +2)": 0}
{"target": "KDELR3 (KDEL endoplasmic reticulum protein retention receptor 3)", "two-siRNA summed score (-2 to +2)": -1}
{"target": "LOC401197", "two-siRNA summed score (-2 to +2)": 0}
{"target": "LOC390734", "two-siRNA summed score (-2 to +2)": 0}
{"target": "MED1 (mediator complex subunit 1)", "two-siRNA summed score (-2 to +2)": 0}
{"target": "HBG2 (hemoglobin subunit gamma 2)", "two-siRNA summed score (-2 to +2)": 0}
{"target": "MED15 (mediator complex subunit 15)", "two-siRNA summed score (-2 to +2)": 0}
{"target": "DEFB119 (defensin beta 119)", "two-siRNA summed score (-2 to +2)": 1}
{"target": "CBY2 (chibby family member 2)", "two-siRNA summed score (-2 to +2)": 0}
{"target": "GPM6A (glycoprotein M6A)", "two-siRNA summed score (-2 to +2)": 1}
{"target": "COLQ", "two-siRNA summed score (-2 to +2)": 0}
{"target": "SLC12A4", "two-siRNA summed score (-2 to +2)": 0}
{"target": "HLA-DOA (major histocompatibility complex, class II, DO alpha)", "two-siRNA summed score (-2 to +2)": 0}
{"target": "PROSER3 (proline and serine rich 3)", "two-siRNA summed score (-2 to +2)": 0}
{"target": "POLL (DNA polymerase lambda)", "two-siRNA summed score (-2 to +2)": 0}
{"target": "NRG4 (neuregulin 4)", "two-siRNA summed score (-2 to +2)": 0}
{"target": "DUX4L8 (double homeobox 4 like 8 (pseudogene))", "two-siRNA summed score (-2 to +2)": 1}
{"target": "SIRT3 (sirtuin 3)", "two-siRNA summed score (-2 to +2)": 0}

Records above called active, once more:
{"target": "SPI1 (Spi-1 proto-oncogene)", "two-siRNA summed score (-2 to +2)": "-2 (active)"}
